Experimental data: paper PMC7827699
No constants are given. Whether binding was seen depends on the method and setting. Binding seen in cells or lysates may run through a third protein. Some entries that bind do so weakly or less than the wild type.

Amino acid sequences for entries named in this document (tags omitted). A change or cut given only in a name is not applied to a line headed by its entry. Chains listed by the source or under a name are the forms on record and can include a tag or linker. Residues count along the entry.
UniProt P61960: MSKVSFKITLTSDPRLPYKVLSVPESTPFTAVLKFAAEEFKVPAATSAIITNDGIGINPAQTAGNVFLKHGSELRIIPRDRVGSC
StrepII-tagged UFM1 ΔVGSC (inactive mutant lacking the 4 C-terminal residues): residues 1-81 of P61960
UniProt Q9GZZ9: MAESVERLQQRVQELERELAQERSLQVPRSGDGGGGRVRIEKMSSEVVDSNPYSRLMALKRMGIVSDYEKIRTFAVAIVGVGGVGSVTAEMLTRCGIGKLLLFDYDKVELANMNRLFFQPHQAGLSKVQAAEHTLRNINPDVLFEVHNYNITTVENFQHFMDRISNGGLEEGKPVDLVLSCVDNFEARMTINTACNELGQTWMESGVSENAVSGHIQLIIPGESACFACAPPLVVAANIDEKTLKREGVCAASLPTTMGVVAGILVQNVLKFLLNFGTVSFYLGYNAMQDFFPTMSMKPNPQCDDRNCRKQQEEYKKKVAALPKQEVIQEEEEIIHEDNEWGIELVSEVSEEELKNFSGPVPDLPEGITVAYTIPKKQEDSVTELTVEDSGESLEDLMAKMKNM

Experiments:
[1] = molecular target: N-terminally StrepII-tagged UFM1 (ubiquitin-fold modifier 1), wildtype (human) (UniProt P61960); test: co-IP
[2] = molecular target: StrepII-tagged UFM1 ΔVGSC (inactive mutant lacking the 4 C-terminal residues) (human) (UniProt P61960); test: co-IP

UBA5, the E1 enzyme of UFM1 (from UniProt Q9GZZ9 1-404)
binding [1]: binds
binding [2]: no binding
